Data reported in the supplement of paper PMC7661543.
± gives the standard deviation of the averaged measurements. The effect of the compound repeats well; differences between the knockouts mostly do not.

Test system: BT-20
Assay: relative cell number vs DMSO control (72 h) (% of DMSO); higher = less growth inhibition (more cells)
Method: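 QMAP-Seq: a pool of 5 breast cancer cell lines (ZR-75-1, SKBR3, HCC-38, MDA-MB-231, BT-20), each carrying 12 doxycycline-inducible Cas9 sgRNA perturbations (11 knockouts plus non-targeting sgNT), was treated with compounds for 72 h at four 10-fold doses (10 nM-10 uM or 1 nM-1 uM range). Barcodes were amplified and sequenced, and cell number was interpolated from 293T spike-in standard curves. The result is expressed as % of the median of DMSO wells. Two biological replicates.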

[1] = sgRNA knockout: sgATF3, 1000 nM
[2] = sgRNA knockout: sgATF3, 10000 nM
[3] = sgRNA knockout: sgATF4, 1000 nM
[4] = sgRNA knockout: sgATF4, 10000 nM
[5] = sgRNA knockout: sgATF6, 1000 nM
[6] = sgRNA knockout: sgATF6, 10000 nM
[7] = sgRNA knockout: sgATG7, 1000 nM
[8] = sgRNA knockout: sgATG7, 10000 nM
[9] = sgRNA knockout: sgERN1, 1000 nM
[10] = sgRNA knockout: sgERN1, 10000 nM
[11] = sgRNA knockout: sgHSF1, 1000 nM
[12] = sgRNA knockout: sgHSF1, 10000 nM
[13] = sgRNA knockout: sgHSF2, 1000 nM
[14] = sgRNA knockout: sgHSF2, 10000 nM
[15] = sgRNA knockout: sgKEAP1, 100 nM
[16] = sgRNA knockout: sgKEAP1, 1000 nM
[17] = sgRNA knockout: sgKEAP1, 10000 nM
[18] = sgRNA knockout: sgNFE2L2, 10 nM
[19] = sgRNA knockout: sgNFE2L2, 100 nM
[20] = sgRNA knockout: sgNFE2L2, 1000 nM
[21] = sgRNA knockout: sgNFE2L2, 10000 nM
[22] = sgRNA knockout: sgSLC35F2, 10 nM
[23] = sgRNA knockout: sgSLC35F2, 100 nM
[24] = sgRNA knockout: sgSLC35F2, 1000 nM
[25] = sgRNA knockout: sgSLC35F2, 10000 nM
[26] = sgRNA knockout: sgXBP1, 1000 nM
[27] = sgRNA knockout: sgXBP1, 10000 nM

c1ccc2c(Oc3nc(Nc4ccc(N5CCOCC5)cc4)c4ncn(C5CCCCC5)c4n3)cccc2c1 [Purmorphamine]
relative cell number (sgRNA knockout: sgATF3, 10 nM): 100 ± 1.5
relative cell number (sgRNA knockout: sgATF3, 100 nM): 107 ± 20
relative cell number [1]: 89.1 ± 13
relative cell number [2]: 78.2 ± 3.5
relative cell number (sgRNA knockout: sgATF4, 10 nM): 102 ± 31
relative cell number (sgRNA knockout: sgATF4, 100 nM): 101 ± 9.2
relative cell number [3]: 102 ± 10
relative cell number [4]: 83.3 ± 0.99
relative cell number (sgRNA knockout: sgATF6, 10 nM): 115 ± 16
relative cell number (sgRNA knockout: sgATF6, 100 nM): 88.8 ± 12
relative cell number [5]: 99.2 ± 8
relative cell number [6]: 97.9 ± 17
relative cell number (sgRNA knockout: sgATG7, 10 nM): 89.5 ± 5.8
relative cell number (sgRNA knockout: sgATG7, 100 nM): 97.5 ± 13
relative cell number [7]: 90.7 ± 18
relative cell number [8]: 83.6 ± 6.2
relative cell number (sgRNA knockout: sgERN1, 10 nM): 91.1 ± 9.2
relative cell number (sgRNA knockout: sgERN1, 100 nM): 96.4 ± 24
relative cell number [9]: 107 ± 17
relative cell number [10]: 77.4 ± 6.1
relative cell number (sgRNA knockout: sgHSF1, 10 nM): 85.6 ± 6.2
relative cell number (sgRNA knockout: sgHSF1, 100 nM): 87.1 ± 11
relative cell number [11]: 90.7 ± 5.4
relative cell number [12]: 80.4 ± 25
relative cell number (sgRNA knockout: sgHSF2, 10 nM): 96.3 ± 12
relative cell number (sgRNA knockout: sgHSF2, 100 nM): 89.2 ± 7
relative cell number [13]: 84.1 ± 6
relative cell number [14]: 72 ± 5.5
relative cell number (sgRNA knockout: sgKEAP1, 10 nM): 98.7 ± 9.3
relative cell number [15]: 80.6 ± 11
relative cell number [16]: 90.9 ± 4
relative cell number [17]: 75.3 ± 2.6
relative cell number [18]: 107 ± 4.9
relative cell number [19]: 91.2 ± 1
relative cell number [20]: 115 ± 4.2
relative cell number [21]: 80.3 ± 5.8
relative cell number [22]: 116 ± 14
relative cell number [23]: 105 ± 8.4
relative cell number [24]: 94.1 ± 25
relative cell number [25]: 77.81 ± 0.77
relative cell number (sgRNA knockout: sgXBP1, 10 nM): 98.1 ± 20
relative cell number (sgRNA knockout: sgXBP1, 100 nM): 107 ± 13
relative cell number [26]: 81.4 ± 10
relative cell number [27]: 76.5 ± 12

CC(C)(C)c1ccc(S(=O)(=O)NCc2ccc(C(=O)Nc3cccnc3)cc2)cc1 [STF31]
relative cell number (sgRNA knockout: sgATF3, 10 nM): 102 ± 6.4
relative cell number (sgRNA knockout: sgATF3, 100 nM): 101 ± 14
relative cell number [1]: 96.3 ± 1.6
relative cell number [2]: 68.2 ± 9.6
relative cell number (sgRNA knockout: sgATF4, 10 nM): 101 ± 28
relative cell number (sgRNA knockout: sgATF4, 100 nM): 93.6 ± 6.4
relative cell number [3]: 93.3 ± 6.7
relative cell number [4]: 81.6 ± 20
relative cell number (sgRNA knockout: sgATF6, 10 nM): 109.8 ± 0.42
relative cell number (sgRNA knockout: sgATF6, 100 nM): 93.4 ± 8.4
relative cell number [5]: 98.8 ± 4
relative cell number [6]: 83.5 ± 12
relative cell number (sgRNA knockout: sgATG7, 10 nM): 109 ± 6
relative cell number (sgRNA knockout: sgATG7, 100 nM): 94.5 ± 2.8
relative cell number [7]: 109 ± 4.8
relative cell number [8]: 80.2 ± 3.4
relative cell number (sgRNA knockout: sgERN1, 10 nM): 90.6 ± 10
relative cell number (sgRNA knockout: sgERN1, 100 nM): 89.6 ± 1.6
relative cell number [9]: 105 ± 6.5
relative cell number [10]: 78.4 ± 5.4
relative cell number (sgRNA knockout: sgHSF1, 10 nM): 96.9 ± 1.8
relative cell number (sgRNA knockout: sgHSF1, 100 nM): 83.8 ± 4.6
relative cell number [11]: 97.5 ± 4
relative cell number [12]: 84 ± 10
relative cell number (sgRNA knockout: sgHSF2, 10 nM): 81.8 ± 17
relative cell number (sgRNA knockout: sgHSF2, 100 nM): 88.1 ± 28
relative cell number [13]: 104 ± 7.6
relative cell number [14]: 78.3 ± 8.4
relative cell number (sgRNA knockout: sgKEAP1, 10 nM): 98 ± 11
relative cell number [15]: 88.1 ± 1.1
relative cell number [16]: 89.6 ± 5.8
relative cell number [17]: 84.4 ± 14
relative cell number [18]: 84.2 ± 3
relative cell number [19]: 99.5 ± 3.5
relative cell number [20]: 95.3 ± 9
relative cell number [21]: 91.4 ± 17
relative cell number [22]: 110 ± 6.2
relative cell number [23]: 92.3 ± 8.1
relative cell number [24]: 108 ± 5.8
relative cell number [25]: 73.5 ± 1.5
relative cell number (sgRNA knockout: sgXBP1, 10 nM): 91.2 ± 9.5
relative cell number (sgRNA knockout: sgXBP1, 100 nM): 83.7 ± 2.1
relative cell number [26]: 102 ± 1.4
relative cell number [27]: 74.5 ± 2.2

CN1CCN(CCOc2cc(OC3CCOCC3)c3c(Nc4c(Cl)ccc5c4OCO5)ncnc3c2)CC1 [Saracatinib]
relative cell number (sgRNA knockout: sgATF3, 10 nM): 76.8 ± 11
relative cell number (sgRNA knockout: sgATF3, 100 nM): 89.6 ± 2.4
relative cell number [1]: 86.4 ± 1.4
relative cell number [2]: 64.3 ± 5.5
relative cell number (sgRNA knockout: sgATF4, 10 nM): 92.36 ± 0.19
relative cell number (sgRNA knockout: sgATF4, 100 nM): 94.4 ± 4.1
relative cell number [3]: 84.6 ± 4.5
relative cell number [4]: 59.9 ± 6.9
relative cell number (sgRNA knockout: sgATF6, 10 nM): 95.4 ± 19
relative cell number (sgRNA knockout: sgATF6, 100 nM): 83.5 ± 6.9
relative cell number [5]: 79 ± 10
relative cell number [6]: 56 ± 10
relative cell number (sgRNA knockout: sgATG7, 10 nM): 86.1 ± 25
relative cell number (sgRNA knockout: sgATG7, 100 nM): 86 ± 16
relative cell number [7]: 89.5 ± 2.2
relative cell number [8]: 63.7 ± 5.6
relative cell number (sgRNA knockout: sgERN1, 10 nM): 81.9 ± 14
relative cell number (sgRNA knockout: sgERN1, 100 nM): 91.4 ± 7.8
relative cell number [9]: 87.5 ± 4.9
relative cell number [10]: 68.1 ± 7.6
relative cell number (sgRNA knockout: sgHSF1, 10 nM): 91.5 ± 4.8
relative cell number (sgRNA knockout: sgHSF1, 100 nM): 84.5 ± 6.4
relative cell number [11]: 83 ± 3.4
relative cell number [12]: 57.9 ± 2.8
relative cell number (sgRNA knockout: sgHSF2, 10 nM): 89 ± 28
relative cell number (sgRNA knockout: sgHSF2, 100 nM): 87.4 ± 4.5
relative cell number [13]: 82.7 ± 5.5
relative cell number [14]: 66.8 ± 6.1
relative cell number (sgRNA knockout: sgKEAP1, 10 nM): 80 ± 15
relative cell number [15]: 92.8 ± 18
relative cell number [16]: 83.6 ± 12
relative cell number [17]: 72.6 ± 15
relative cell number [18]: 80.8 ± 13
relative cell number [19]: 99.7 ± 17
relative cell number [20]: 80.7 ± 20
relative cell number [21]: 53.2 ± 2.4
relative cell number [22]: 101 ± 9.9
relative cell number [23]: 94.7 ± 13
relative cell number [24]: 96 ± 9.9
relative cell number [25]: 72.8 ± 18
relative cell number (sgRNA knockout: sgXBP1, 10 nM): 83.8 ± 7.6
relative cell number (sgRNA knockout: sgXBP1, 100 nM): 104 ± 6.9
relative cell number [26]: 81.6 ± 1.6
relative cell number [27]: 53 ± 1.4
